Experimental findings from patent US20050037091A1, “Composition comprising paracetamol and a bitterness masking component” (priority 2001, published 2005) are described below.

Data set [1] can be described thus: Bitterness of Control Example 1 with edible emulsifiers added. The following applies: emulsifier 0.1 g per dose in Control Example 1, 40 ml, 100% paracetamol.
Data set [2] in a line: Bitterness masking of additives added to Control Example 1, scored on the equi-bitter paracetamol scale.
Where [3] appears, read: additive 0.020 g/serving in Control Example 1, 40 ml.
The mark [4] stands for this setting: additive 0.040 g/serving in Control Example 1, 40 ml.
Setting [5] is: additive 0.10 g/serving in Control Example 1, 40 ml.
The mark [6] stands for this setting: additive 0.20 g/serving in Control Example 1, 40 ml.

For the molecule “Sodium steroyl-1-lactylate [sodium steroyl-2-actylate]”, the “bitterness of the formulation” value in data set [1] was “no reduction”.
As for `NCC(=O)O` [Glycine], the “Equi-bitter paracetamol concentration (%)” value in data set [2] (setting [3]) is on record as 100%; in data set [2] (setting [4]), 95%; in data set [2] (additive 0.080 g/serving in Control Example 1, 40 ml), 90%; in data set [2] (additive 0.160 g/serving in Control Example 1, 40 ml) it was 85%; in data set [2] (additive 0.320 g/serving in Control Example 1, 40 ml), 80%.
Regarding `[Cl-].[Na+]` [Sodium chloride], the “Equi-bitter paracetamol concentration (%)” value in data set [2] (additive 0.0025 g/serving in Control Example 1, 40 ml) was 100%; in data set [2] (additive 0.0050 g/serving in Control Example 1, 40 ml), 100%; in data set [2] (additive 0.010 g/serving in Control Example 1, 40 ml) it was “Possible slight reduction”; in data set [2] (setting [3]) it was “Salty”; in data set [2] (setting [4]), “Salty”.
As for Polysorbate 80, the “bitterness of the formulation” value in data set [1] is reported as “reduced bitterness”.
Regarding Magnesium gluconate, the “Equi-bitter paracetamol concentration (%)” value is listed as 90% in data set [2] (setting [5]); 85% in data set [2] (setting [6]); 80-82% in data set [2] (additive 0.40 g/serving in Control Example 1, 40 ml); 75% in data set [2] (additive 0.80 g/serving in Control Example 1, 40 ml); 70% in data set [2] (additive 1.60 g/serving in Control Example 1, 40 ml).
As for Sucrose ester, the “Equi-bitter paracetamol concentration (%)” value in data set [2] (additive 0.025 g/serving in Control Example 1, 40 ml) is on record as 100%; in data set [2] (additive 0.050 g/serving in Control Example 1, 40 ml), 100%; in data set [2] (setting [5]), 95-100%; in data set [2] (additive 0.150 g/serving in Control Example 1, 40 ml), 90-95%; in data set [2] (setting [6]), 90%.
